# Test results from patent US10391168B1, “Anti-CD70 combination therapy” (University of Bern, priority 2014, dated 2019).
# Test system: SD-1 cells
# Test: Chou-Talalay drug combination study, growth inhibition of SD-1 cells (cell numbers after 72 h)
# Conditions: CompuSyn median-effect analysis
smiles,measurement,value
Cc1ccc(NC(=O)c2ccc(CN3CCN(C)CC3)cc2)cc1Nc1nccc(-c2cccnc2)n1 [imatinib],"m (slope), single treatment",1.183
